Amino acid sequences for entries named in this document (tags omitted). A change or cut given only in a name is not applied to a line headed by its entry. Residues count along the entry.
UniProt Q02763: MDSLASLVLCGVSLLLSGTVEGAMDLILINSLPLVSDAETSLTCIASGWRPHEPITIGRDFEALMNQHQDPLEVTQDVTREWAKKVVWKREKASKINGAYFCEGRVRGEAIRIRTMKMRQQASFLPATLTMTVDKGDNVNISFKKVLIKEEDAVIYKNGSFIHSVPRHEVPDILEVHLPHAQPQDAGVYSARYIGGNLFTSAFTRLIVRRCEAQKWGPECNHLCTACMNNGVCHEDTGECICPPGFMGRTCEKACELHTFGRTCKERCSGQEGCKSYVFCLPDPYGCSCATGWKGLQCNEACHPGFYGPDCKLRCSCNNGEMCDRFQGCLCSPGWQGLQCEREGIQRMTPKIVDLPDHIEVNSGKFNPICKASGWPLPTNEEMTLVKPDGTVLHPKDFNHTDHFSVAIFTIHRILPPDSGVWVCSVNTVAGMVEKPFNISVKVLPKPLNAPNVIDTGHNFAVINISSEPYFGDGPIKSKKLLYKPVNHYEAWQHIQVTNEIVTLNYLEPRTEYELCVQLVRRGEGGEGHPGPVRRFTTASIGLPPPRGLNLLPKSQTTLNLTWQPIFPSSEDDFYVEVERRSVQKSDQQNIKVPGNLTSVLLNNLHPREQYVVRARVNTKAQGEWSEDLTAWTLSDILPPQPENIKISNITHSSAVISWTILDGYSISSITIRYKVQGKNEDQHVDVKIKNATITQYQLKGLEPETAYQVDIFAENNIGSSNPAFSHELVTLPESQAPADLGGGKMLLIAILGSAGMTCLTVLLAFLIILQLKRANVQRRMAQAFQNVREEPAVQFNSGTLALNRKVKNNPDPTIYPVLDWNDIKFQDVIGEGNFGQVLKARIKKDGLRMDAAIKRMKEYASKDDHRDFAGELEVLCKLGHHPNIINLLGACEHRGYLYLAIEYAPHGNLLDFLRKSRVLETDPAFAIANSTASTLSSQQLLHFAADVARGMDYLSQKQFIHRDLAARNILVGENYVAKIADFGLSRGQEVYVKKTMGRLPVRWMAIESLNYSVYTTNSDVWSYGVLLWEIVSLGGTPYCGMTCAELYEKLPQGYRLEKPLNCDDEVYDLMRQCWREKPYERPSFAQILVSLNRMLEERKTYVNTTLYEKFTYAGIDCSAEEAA
UniProt O15123, residues 19-496: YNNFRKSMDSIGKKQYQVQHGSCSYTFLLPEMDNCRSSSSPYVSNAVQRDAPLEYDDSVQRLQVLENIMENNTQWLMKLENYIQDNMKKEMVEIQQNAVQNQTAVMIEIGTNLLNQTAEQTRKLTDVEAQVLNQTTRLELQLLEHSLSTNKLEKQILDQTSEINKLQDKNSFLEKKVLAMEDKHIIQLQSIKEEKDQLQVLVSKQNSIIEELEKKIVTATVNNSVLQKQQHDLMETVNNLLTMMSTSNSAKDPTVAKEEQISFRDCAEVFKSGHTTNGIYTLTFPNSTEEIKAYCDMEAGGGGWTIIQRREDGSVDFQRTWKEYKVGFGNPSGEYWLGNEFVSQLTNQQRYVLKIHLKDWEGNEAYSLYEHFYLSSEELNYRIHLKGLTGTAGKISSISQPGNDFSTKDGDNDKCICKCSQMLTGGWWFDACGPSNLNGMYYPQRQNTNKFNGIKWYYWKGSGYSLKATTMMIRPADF

According to article PMC9981882:

Target: Tie2 (tunica interna endothelial cell kinase 2), immobilized on the Octet biosensor (UniProt Q02763)
Experiment: BLI; Octet Red 96e, Ni-NTA sensors, Tie2 immobilised; first step 100 nM ANGPT1 or ANGPT2 in PBS (up to 2200 sec), second step PBS, 100 nM ANGPT1 (or ANGPT2) or 27.2 nM 4E2; order of the steps also reversed; both purified

angiopoietin-2 (from UniProt O15123 19-496) (ligand)
binding: binds

No constants are given. Whether binding was seen depends on the method and setting. Binding can be weak; no strength is given.
